# PubChem BioAssay AID240 (DTP/NCI, 2004)
# The list does not hold the whole screen: it is rich in T/C values a quarter to a half above the control, in often repeated tests (any T/C) and in doses without a T/C. Other doses and runs of a compound stand elsewhere. T/C gives the treated animals as a percentage of the vehicle group. Some entries give survivors of the animals treated and no T/C: the source files T/C as zero there, which appears to mark a toxic dose or a test without result, not a measured value. Some survivor counts are full or nearly so, which does not show that the dose was tolerated: the source hardly ever lists a survival T/C far under the control, and the zero likely stands for such cases as well. Counts of survivors are from the toxicity check (mostly the fifth day) where no day follows; animals may have died later. Schedules are NCI's codes, read here as Q, the interval in days (D) or hours (H), X, the number of doses. Some doses were run more than once; the values are given in rising order. For survival time, the PubChem record calls one and a half times the control and up active, and a quarter to a half above the control has no call in these data; cut-offs in other NCI protocols can differ. Counts like (3×) stand for listed records that agree. Some T/C values carry the count of animals alive at the toxicity check (mostly the fifth day); without a count, all were alive then. Starred links: 1 amine or outer side, 2 acyl side, 3 side chain; linkers in the order of their positions; H or OH if unused. Positions of bridges follow the written chain, without caps; N, C: chain ends. Non-standard residues stand in square brackets, D forms with d. Residues, ends and D or L forms follow the SMILES beside them. Chains are numbered I, II in the order given. Actinocin(9to1) = Cc1c2oc3c(C)ccc(C(=O)[*:1])c3nc-2c(C(=O)[*:2])c(N)c1=O; aThr = C[C@H](O)[C@H](N)C(=O)O; NMeV = CN[C@H](C(=O)O)C(C)C; Sar = CNCC(=O)O
# System: Lymphoma 4 ip in BDF1 mice, median survival
# Experiment: NCI In Vivo Anticancer Drug Screen. Data for tumor model Lymphoma 4 (intraperitoneal) in B6D2F1 (BDF1) mice
# Settings: T/C endpoint: median survival time, schedule: Q01DX010 (ip), higher T/C = longer survival
# Method: The antitumor activity of compounds was measured in mice bearing transplantable tumors. Survival or tumor size were measured and the results are expressed as the measurement made in the treated group (T) divided by the measurement made in the vehicle treated control group (C). The tumor model used in this assay is Lymphoma 4 (intraperitoneal) in B6D2F1 (BDF1) mice
# [1] = dose: 125.0 mg/kg/injection, vehicle: saline
# [2] = dose: 2.0 mg/kg/injection, vehicle: saline
# [3] = dose: 4.0 mg/kg/injection, vehicle: saline
# [4] = dose: 8.0 mg/kg/injection, vehicle: saline
# [5] = dose: 25.0 mg/kg/injection, vehicle: saline
# [6] = dose: 5.0 mg/kg/injection, vehicle: saline
# [7] = dose: 4.0 mg/kg/injection, vehicle: other
# [8] = dose: 8.0 mg/kg/injection, vehicle: other
# [9] = dose: 16.0 mg/kg/injection, vehicle: other
# [10] = dose: 32.0 mg/kg/injection, vehicle: other
# [11] = dose: 64.0 mg/kg/injection, vehicle: other
smiles,measurement,setting,value
CC(=O)N(C)C,survivor count,"dose: 62.5 mg/kg/injection, vehicle: saline",6 of 6
same,survivor count,[1],6 of 6
same,survivor count,"dose: 250.0 mg/kg/injection, vehicle: saline",5 of 6
same,survivor count,"dose: 500.0 mg/kg/injection, vehicle: saline",6 of 6
Nc1nc(=S)c2ncn(C3OC(CO)C(O)C3O)c2[nH]1 (stereo unspecified),survivor count,[2],6 of 6
same,survivor count,[3],6 of 6
same,survivor count,[4],5 of 6
"Cc1c2oc3c(C)ccc(C(=O)N[C@@H]4C(=O)N[C@H](C(C)C)C(=O)N5CCC[C@H]5C(=O)N(C)CC(=O)N(C)[C@@H](C(C)C)C(=O)O[C@H]4C)c3nc-2c(C(=O)N[C@@H]2C(=O)N[C@H](C(C)C)C(=O)N3CCC[C@H]3C(=O)N(C)CC(=O)N(C)[C@@H](C(C)C)C(=O)O[C@H]2C)c(N)c1=O (I: [aThr][dV]P[Sar][NMeV] / II: [aThr][dV]P[Sar][NMeV]; ester I:1-I:C, II:1-II:C; linker I:N-II:N via Actinocin(9to1))",T/C,"dose: 25.0 micrograms/kg/injection, vehicle: other",141 % of control
same,survivor count,"dose: 100.0 micrograms/kg/injection, vehicle: other",6 of 6
O=C(O)CCCc1ccc(N(CCCl)CCCl)cc1,survivor count,"dose: 12.5 mg/kg/injection, vehicle: saline",6 of 6
same,survivor count,[5],0 of 6 and 4 of 6
CS(=O)(=O)OCCN(CCOS(C)(=O)=O)c1ccc(N=O)cc1,T/C,"dose: 0.25 mg/kg/injection, vehicle: saline",138 % of control
same,T/C,"dose: 1.0 mg/kg/injection, vehicle: saline",126 % of control
same,survivor count,[2],6 of 6
same,survivor count,[3],4 of 6
same,survivor count,[4],0 of 6
same,survivor count,"dose: 16.0 mg/kg/injection, vehicle: saline",0 of 6
CCCCNc1ncnc2c1cnn2C,survivor count,[1],6 of 6
O=c1[nH]cc(F)c(=O)[nH]1,T/C,[6],144 % of control
same,survivor count,"dose: 40.0 mg/kg/injection, vehicle: saline",6 of 6
O=c1cnn(C2OC(CO)C(O)C2O)c(=O)[nH]1 (stereo unspecified),survivor count,"dose: 1600.0 mg/kg/injection, vehicle: saline",6 of 6
N#[N+]c1cnc([O-])[nH]c1=O,T/C,"dose: 2.5 mg/kg/injection, vehicle: saline",131 [5 of 6 alive] and 146 % of control
same,T/C,[6],131 % of control
same,T/C,"dose: 10.0 mg/kg/injection, vehicle: saline",134 % of control
same,survivor count,"dose: 20.0 mg/kg/injection, vehicle: saline",0 of 6
O=C(Nc1ccc(C2=NCCN2)cc1)c1ccc(C(=O)Nc2ccc(C3=NCCN3)cc2)c([N+](=O)[O-])c1,T/C,"dose: 6.0 mg/kg/injection, vehicle: saline",146 % of control
CC(=O)NC1=C(N2CC2)C(=O)C(NC(C)=O)=C(N2CC2)C1=O,T/C,"dose: 0.5 mg/kg/injection, vehicle: saline",142 % of control
O=C(Nc1ccc(C2=NCCN2)cc1)c1ccc(C(=O)Nc2ccc(C3=NCCN3)cc2)c(Cl)c1,T/C,"dose: 2.0 mg/kg/injection, vehicle: other","103 [5 of 6 alive], 108, 115, 116 % of control"
same,T/C,[7],"118, 126 (2×), 128 % of control"
same,T/C,[8],"160, 175, 178, 185 % of control"
same,T/C,[9],"246, 256, 300, 326 % of control"
same,T/C,[10],90 [5 of 6 alive] and 103 % of control
same,survivor count,[10],3 of 6 and 5 of 6
CS(=O)(=O)OCCC(=O)N1CCN(C(=O)CCOS(C)(=O)=O)CC1,T/C,[5],129 % of control
same,T/C,"dose: 50.0 mg/kg/injection, vehicle: saline",148 % of control
O=C(Nc1ccc(C2=NCCN2)cc1)c1ccc(C(=O)Nc2ccc(C3=NCCN3)cc2)cc1,T/C,[7],"123, 125, 132, 150 % of control"
same,T/C,[8],"123, 159, 168, 205 % of control"
same,T/C,[9],"123, 128, 150, 162 % of control"
same,T/C,[10],"109, 113, 129, 140 % of control"
same,T/C,[11],"112, 131, 138 % of control"
same,survivor count,[11],4 of 6
